Results are given in words; binding and its absence hold for the method and conditions named. For some assays here: In cells and extracts the contact can be indirect. Some entries that bind do so weakly or less than the wild type. Values belong to the molecule of their own block, whether it stands above or below them.
Columns and labels:
[1] = molecular target: MEK1 (UniProt Q02750); experiment: interaction in transfected cells (method not described; FIG. 3 cited)
[2] = molecular target: APA-GFP-ERK2 (UniProt P63086); experiment: immunoprecipitated ERK2 constructs incubated with 0.5 µg recombinant His-Nup153c (FIG. 19C)
[3] = molecular target: APA-GFP-ERK2 (UniProt P63086); experiment: immunoprecipitated ERK2 constructs incubated with 0.5 µg recombinant His-Nup153c, Western blot with anti His Ab
[4] = molecular target: importin-7 (mammalian (e.g. human)) (UniProt O95373); experiment: co-immunoprecipitation with anti GFP Ab from HeLa cells, Western blot for importin-7
[5] = molecular target: importin-7 (mammalian (e.g. human)) (UniProt O95373); experiment: co-immunoprecipitation with anti GFP Ab from HeLa cells, EGF 50 ng/ml 10 min (FIG. 19A)

Sequences of proteins named here, by UniProt entry; tags and fusion partners are left off. Residues count along the entry.
UniProt O95373: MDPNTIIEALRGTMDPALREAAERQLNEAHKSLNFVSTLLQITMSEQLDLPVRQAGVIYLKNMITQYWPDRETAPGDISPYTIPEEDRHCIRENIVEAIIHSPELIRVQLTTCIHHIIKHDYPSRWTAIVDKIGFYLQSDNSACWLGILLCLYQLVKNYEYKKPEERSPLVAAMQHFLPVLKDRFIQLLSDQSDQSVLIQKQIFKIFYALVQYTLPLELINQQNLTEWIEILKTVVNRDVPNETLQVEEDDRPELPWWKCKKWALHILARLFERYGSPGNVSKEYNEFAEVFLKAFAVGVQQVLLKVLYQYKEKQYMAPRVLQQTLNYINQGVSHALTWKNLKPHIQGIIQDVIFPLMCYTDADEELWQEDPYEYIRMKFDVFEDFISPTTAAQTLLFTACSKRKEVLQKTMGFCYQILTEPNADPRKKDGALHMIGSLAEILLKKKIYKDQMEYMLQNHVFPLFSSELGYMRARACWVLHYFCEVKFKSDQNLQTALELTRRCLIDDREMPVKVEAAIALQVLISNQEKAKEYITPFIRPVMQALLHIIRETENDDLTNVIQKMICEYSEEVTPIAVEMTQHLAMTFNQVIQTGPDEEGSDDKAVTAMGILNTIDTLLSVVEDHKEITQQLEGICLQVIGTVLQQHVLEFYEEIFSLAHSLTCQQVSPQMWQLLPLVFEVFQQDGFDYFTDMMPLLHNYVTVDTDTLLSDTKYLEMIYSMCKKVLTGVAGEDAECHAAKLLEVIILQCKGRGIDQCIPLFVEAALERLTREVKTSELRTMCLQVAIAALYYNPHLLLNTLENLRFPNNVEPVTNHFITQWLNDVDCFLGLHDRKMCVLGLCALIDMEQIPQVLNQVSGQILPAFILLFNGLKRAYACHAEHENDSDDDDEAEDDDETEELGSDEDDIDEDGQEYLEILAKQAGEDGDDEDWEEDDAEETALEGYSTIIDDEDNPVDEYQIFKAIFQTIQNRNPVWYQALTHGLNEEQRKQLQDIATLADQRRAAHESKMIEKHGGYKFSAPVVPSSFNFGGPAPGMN
UniProt P49790, residues 895-1475: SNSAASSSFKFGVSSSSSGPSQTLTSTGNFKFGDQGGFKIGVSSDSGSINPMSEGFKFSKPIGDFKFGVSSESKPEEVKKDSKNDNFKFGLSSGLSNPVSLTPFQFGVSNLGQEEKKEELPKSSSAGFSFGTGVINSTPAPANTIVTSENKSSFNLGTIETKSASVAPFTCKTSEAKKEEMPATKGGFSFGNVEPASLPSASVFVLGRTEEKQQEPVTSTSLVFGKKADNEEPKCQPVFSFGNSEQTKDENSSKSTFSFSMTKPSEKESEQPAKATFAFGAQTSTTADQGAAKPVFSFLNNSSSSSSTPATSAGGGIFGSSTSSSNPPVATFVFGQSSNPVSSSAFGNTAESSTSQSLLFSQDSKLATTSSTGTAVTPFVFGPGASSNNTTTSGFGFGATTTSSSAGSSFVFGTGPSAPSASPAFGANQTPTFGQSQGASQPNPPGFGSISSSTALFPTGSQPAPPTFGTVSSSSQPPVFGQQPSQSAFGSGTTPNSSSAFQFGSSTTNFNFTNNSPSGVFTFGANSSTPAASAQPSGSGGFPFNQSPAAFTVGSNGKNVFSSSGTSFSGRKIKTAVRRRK

binding [1]: binds
Molecule: GFP-ERK244-6A (from UniProt P63086 1-358) (enzyme)

binding [2]: binds
binding [3]: binds
Molecule: recombinant His-Nup153c (from UniProt P49790 895-1475)

binding [4]: binds
binding [5]: binds
B1: EPE-GFP-ERK2 (enzyme, UniProt P63086 1-358, looked up)
chain: MAAAAAAGPEMVRGQVFDVGPRYTNLSYIGEGAYGMVCSAYDNLNKVRVAIKKISPFEHQTYCQRTLREIKILLRFRHENIIGINDIIRAPTIEQMKDVYIVQDLMETDLYKLLKTQHLSNDHICYFLYQILRGLKYIHSANVLHRDLKPSNLLLNTTCDLKICDFGLARVADPDHDHTGFLTEYVATRWYRAPEIMLNSKGYTKSIDIWSVGCILAEMLSNRPIFPGKHYLDQLNHILGILGEPEQEDLNCIINLKARNYLLSLPHKNKVPWNRLFPNADSKALDLLDKMLTFNPHKRIEVEQALAHPYLEQYYDPSDEPIAEAPFKFDMELDDLPKEKLKELIFEETARFQPGYRS
notes: also called GFP-ERK244/6E; ERK-EE; not shown: GFP encoded by pEGFP C1 (Clontech)

Source: patent US20100099627A1 (YEDA RESEARCH AND DEVELOPMENT, published 2010)
